# The list shows a part of the results.
# Assays:
# Assay in all cases: glycan array binding signal (z-score within array); higher = stronger binding
# Settings in all cases: glycan notation: IUPAC condensed, linker removed
# [1] = biological target: Neu5Ac(a2-8)Neu5Ac
# Summary of the method: (§1)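 Glycan array binding is given as a within-array Z-score, which can be read as non-binding when negative. The arrays, 3228 of them, came from the Consortium for Functional Glycomics database and were retained only where the protein sequence was available. Z-scores were averaged across arrays of the same protein sequence at different concentrations or buffers and across linkers.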
# [2] = biological target: Neu5Ac(a2-8)Neu5Ac(a2-3)Gal(b1-3)GalNAc(b1-4)[Neu5Ac(a2-3)]Gal(b1-4)Glc
# Summary of the method: as §1
# [3] = biological target: Neu5Ac(a2-8)Neu5Ac(a2-3)Gal(b1-3)GalNAc(b1-4)[Neu5Ac(a2-8)Neu5Ac(a2-3)]Gal(b1-4)Glc
# Summary of the method: as §1
# [4] = biological target: Neu5Ac(a2-8)Neu5Ac(a2-3)Gal(b1-4)Glc
# Summary of the method: as §1
# [5] = biological target: Neu5Ac(a2-8)Neu5Ac(a2-3)Gal(b1-4)GlcNAc
# Summary of the method: as §1
# [6] = biological target: Neu5Ac(a2-8)Neu5Ac(a2-3)[Gal(b1-3)GalNAc(b1-4)]Gal(b1-4)Glc
# Summary of the method: as §1
# [7] = biological target: Neu5Ac(a2-8)Neu5Ac(a2-3)[GalNAc(b1-4)]Gal(b1-4)Glc
# Summary of the method: as §1
# [8] = biological target: Neu5Ac(a2-8)Neu5Ac(a2-8)Neu5Ac
# Summary of the method: as §1
# [9] = biological target: Neu5Ac(a2-8)Neu5Ac(a2-8)Neu5Ac(a2-3)Gal(b1-4)Glc
# Summary of the method: as §1
# [10] = biological target: Neu5Ac(a2-8)Neu5Ac(a2-8)Neu5Ac(a2-3)[Gal(b1-3)GalNAc(b1-4)]Gal(b1-4)Glc
# Summary of the method: as §1
# [11] = biological target: Neu5Ac(a2-8)Neu5Ac(a2-8)Neu5Ac(a2-3)[GalNAc(b1-4)]Gal(b1-4)Glc
# Summary of the method: as §1
# [12] = biological target: Neu5Ac(a2-8)Neu5Ac(a2-8)Neu5Ac(a2-8)Neu5Ac(a2-3)[GalNAc(b1-4)]Gal(b1-4)Glc
# Summary of the method: as §1
# [13] = biological target: Neu5Ac(a2-8)Neu5Gc(a2-3)Gal(b1-4)GlcNAc
# Summary of the method: as §1
# [14] = biological target: Neu5Ac(b2-6)Gal(b1-4)GlcNAc
# Summary of the method: as §1
# [15] = biological target: Neu5Ac(b2-6)GalNAc
# Summary of the method: as §1
# [16] = biological target: Neu5Ac9Ac(a2-3)Gal(b1-3)GlcNAc
# Summary of the method: as §1
# [17] = biological target: Neu5Ac9Ac(a2-3)Gal(b1-4)GlcNAc
# Summary of the method: as §1
# [18] = biological target: Neu5Ac9Ac(a2-6)Gal(b1-4)GlcNAc
# Summary of the method: as §1
# [19] = biological target: Neu5Gc(a2-3)Gal(b1-3)GlcNAc
# Summary of the method: as §1
# [20] = biological target: Neu5Gc(a2-3)Gal(b1-3)[Fuc(a1-4)]GlcNAc
# Summary of the method: as §1
# [21] = biological target: Neu5Gc(a2-3)Gal(b1-4)Glc
# Summary of the method: as §1
# [22] = biological target: Neu5Gc(a2-3)Gal(b1-4)GlcNAc
# Summary of the method: as §1
# [23] = biological target: Neu5Gc(a2-3)Gal(b1-4)GlcNAc(b1-3)Gal(b1-4)GlcNAc(b1-2)Man(a1-3)[Neu5Gc(a2-3)Gal(b1-4)GlcNAc(b1-3)Gal(b1-4)GlcNAc(b1-2)Man(a1-6)]Man(b1-4)GlcNAc(b1-4)GlcNAc
# Summary of the method: as §1
# [24] = biological target: Neu5Gc(a2-3)Gal(b1-4)[Fuc(a1-3)]GlcNAc
# Summary of the method: as §1
# [25] = biological target: Neu5Gc(a2-6)Gal(b1-4)GlcNAc
# Summary of the method: as §1
# [26] = biological target: Neu5Gc(a2-6)GalNAc
# Summary of the method: as §1
# [27] = biological target: Neu5Gc(a2-8)Neu5Ac(a2-3)Gal(b1-4)GlcNAc
# Summary of the method: as §1
# [28] = biological target: Neu5Gc(a2-8)Neu5Gc(a2-3)Gal(b1-4)GlcNAc
# Summary of the method: as §1
# [29] = biological target: Neu5Gc(a2-8)Neu5Gc(a2-3)Gal(b1-4)GlcNAc(b1-3)Gal(b1-4)GlcNAc
# Summary of the method: as §1
# [30] = biological target: Neu5Gc(a2-8)Neu5Gc(a2-6)Gal(b1-4)GlcNAc
# Summary of the method: as §1
# [31] = biological target: Neu5Gc(b2-6)Gal(b1-4)GlcNAc
# Summary of the method: as §1
binder,measurement,setting,value
"Langerin K299A/K313A (Homo sapiens), Q9UJ71 (protein) STLNAQIPELKSDLEKASALNTKIRALQGSLENMSKLLKRQNDILQVVSQGWKYFKGNFYYFSLIPKTWYSAEQFCVSRNSHLTSVTSESEQEFLYKTAGGLIYWIGLTKAGMEGDWSWVDDTPFNKVQSARFWIPGEPNNAGNNEHCGNIAAPSLQAWNDAPCDATFLFICKRPYVPSEP",glycan array binding signal (z-score),[1],-0.543
same,glycan array binding signal (z-score),[2],0.043
same,glycan array binding signal (z-score),[3],-0.256
same,glycan array binding signal (z-score),[4],-0.708
same,glycan array binding signal (z-score),[5],-1.24
same,glycan array binding signal (z-score),[6],0.095
same,glycan array binding signal (z-score),[7],-0.957
same,glycan array binding signal (z-score),[8],-0.55
same,glycan array binding signal (z-score),[9],-0.346
same,glycan array binding signal (z-score),[10],1.26
same,glycan array binding signal (z-score),[11],-0.629
same,glycan array binding signal (z-score),[12],-0.964
same,glycan array binding signal (z-score),[13],-1.07
same,glycan array binding signal (z-score),[14],-0.699
same,glycan array binding signal (z-score),[15],-0.61
same,glycan array binding signal (z-score),[16],-0.42
same,glycan array binding signal (z-score),[17],-0.583
same,glycan array binding signal (z-score),[18],-0.871
same,glycan array binding signal (z-score),[19],-0.452
same,glycan array binding signal (z-score),[20],-0.236
same,glycan array binding signal (z-score),[21],-0.569
same,glycan array binding signal (z-score),[22],-0.25
same,glycan array binding signal (z-score),[23],0.164
same,glycan array binding signal (z-score),[24],0.037
same,glycan array binding signal (z-score),[25],-0.32
same,glycan array binding signal (z-score),[26],-0.103
same,glycan array binding signal (z-score),[27],-0.057
same,glycan array binding signal (z-score),[28],0.736
same,glycan array binding signal (z-score),[29],0.186
same,glycan array binding signal (z-score),[30],-1.17
same,glycan array binding signal (z-score),[31],-1.08

# Exported as tab-separated lines: part of the list above
binder	measurement	setting	value
Langerin K299A/K313A (Homo sapiens), Q9UJ71 (protein) STLNAQIPELKSDLEKASALNTKIRALQGSLENMSKLLKRQNDILQVVSQGWKYFKGNFYYFSLIPKTWYSAEQFCVSRNSHLTSVTSESEQEFLYKTAGGLIYWIGLTKAGMEGDWSWVDDTPFNKVQSARFWIPGEPNNAGNNEHCGNIAAPSLQAWNDAPCDATFLFICKRPYVPSEP	glycan array binding signal (z-score)	[8]	-0.55
same	glycan array binding signal (z-score)	[9]	-0.346

# From the supplement of paper PMC8728848
